Measurements: US20150045248A1
These are yes or no findings as the source states them, for the method shown. Binding seen in cells or lysates may run through a third protein. Some entries that bind do so weakly or less than the wild type.

Chains of the proteins cited; added tags and fusions are not shown. Lines headed by an entry give the natural chain unless they say otherwise; changes in a name come on top. Residues count along the entry.
UniProt Q96DH6: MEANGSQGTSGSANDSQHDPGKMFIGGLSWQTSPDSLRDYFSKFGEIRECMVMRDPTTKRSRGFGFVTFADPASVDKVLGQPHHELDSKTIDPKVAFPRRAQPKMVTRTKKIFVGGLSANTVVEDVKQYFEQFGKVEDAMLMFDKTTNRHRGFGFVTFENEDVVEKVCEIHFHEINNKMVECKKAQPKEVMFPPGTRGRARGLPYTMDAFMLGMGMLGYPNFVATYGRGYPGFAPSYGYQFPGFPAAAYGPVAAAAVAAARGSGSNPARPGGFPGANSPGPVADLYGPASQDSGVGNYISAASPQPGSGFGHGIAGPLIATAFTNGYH
UniProt P00367, residues 54-558: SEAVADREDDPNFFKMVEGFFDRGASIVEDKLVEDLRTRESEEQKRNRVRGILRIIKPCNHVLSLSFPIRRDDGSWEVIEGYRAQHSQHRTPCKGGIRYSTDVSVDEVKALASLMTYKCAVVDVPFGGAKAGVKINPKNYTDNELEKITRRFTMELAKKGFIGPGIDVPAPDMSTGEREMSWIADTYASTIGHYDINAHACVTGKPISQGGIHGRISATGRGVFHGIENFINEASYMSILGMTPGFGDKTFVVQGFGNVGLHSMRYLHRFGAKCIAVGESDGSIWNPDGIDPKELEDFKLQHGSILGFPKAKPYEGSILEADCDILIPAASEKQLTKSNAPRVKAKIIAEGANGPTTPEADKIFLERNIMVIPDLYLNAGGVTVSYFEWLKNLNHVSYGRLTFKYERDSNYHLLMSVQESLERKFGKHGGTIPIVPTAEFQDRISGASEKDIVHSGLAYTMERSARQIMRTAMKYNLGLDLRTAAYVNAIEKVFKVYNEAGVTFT
UniProt Q13148: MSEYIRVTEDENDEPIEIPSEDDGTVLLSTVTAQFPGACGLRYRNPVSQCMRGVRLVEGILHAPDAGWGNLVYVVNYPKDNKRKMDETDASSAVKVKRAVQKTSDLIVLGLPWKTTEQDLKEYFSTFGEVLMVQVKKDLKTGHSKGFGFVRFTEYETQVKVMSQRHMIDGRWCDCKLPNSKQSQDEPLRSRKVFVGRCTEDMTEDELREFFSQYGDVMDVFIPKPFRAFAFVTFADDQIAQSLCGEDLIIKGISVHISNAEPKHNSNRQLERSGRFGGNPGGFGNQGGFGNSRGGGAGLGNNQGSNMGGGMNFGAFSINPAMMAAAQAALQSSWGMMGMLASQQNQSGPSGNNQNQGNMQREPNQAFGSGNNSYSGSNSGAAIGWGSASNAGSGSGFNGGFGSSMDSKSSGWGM

Columns and labels:
[1] = target: T1, Aralar 2 (SLC25A3; citrin) (UniProt Q9UJS0); test: co-immunoprecipitation from cell extract, Western blot (FIG. 15)
T1 sequence (looked up): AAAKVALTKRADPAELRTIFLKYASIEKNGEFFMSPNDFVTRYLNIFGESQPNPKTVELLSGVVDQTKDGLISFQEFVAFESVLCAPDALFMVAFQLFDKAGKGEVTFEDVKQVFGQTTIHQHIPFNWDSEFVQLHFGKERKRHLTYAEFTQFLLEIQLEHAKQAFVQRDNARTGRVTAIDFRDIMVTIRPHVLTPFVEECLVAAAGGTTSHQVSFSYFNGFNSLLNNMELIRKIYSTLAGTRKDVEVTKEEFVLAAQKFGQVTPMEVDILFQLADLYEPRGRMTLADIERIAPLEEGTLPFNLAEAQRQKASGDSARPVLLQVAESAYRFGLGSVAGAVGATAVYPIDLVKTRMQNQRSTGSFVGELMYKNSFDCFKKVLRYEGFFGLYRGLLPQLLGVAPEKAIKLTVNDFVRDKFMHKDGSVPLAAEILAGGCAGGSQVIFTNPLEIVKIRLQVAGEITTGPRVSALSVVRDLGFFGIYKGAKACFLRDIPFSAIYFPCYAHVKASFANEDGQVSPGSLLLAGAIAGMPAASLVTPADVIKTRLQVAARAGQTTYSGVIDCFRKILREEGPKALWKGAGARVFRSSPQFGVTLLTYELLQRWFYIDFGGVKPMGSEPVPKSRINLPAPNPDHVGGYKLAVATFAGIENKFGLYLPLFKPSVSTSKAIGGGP

Aralar 1 (SLC25A12) [2] = target: T2, Aralar 1 (SLC25A12) (UniProt O75746); test: as above
T2 sequence (looked up): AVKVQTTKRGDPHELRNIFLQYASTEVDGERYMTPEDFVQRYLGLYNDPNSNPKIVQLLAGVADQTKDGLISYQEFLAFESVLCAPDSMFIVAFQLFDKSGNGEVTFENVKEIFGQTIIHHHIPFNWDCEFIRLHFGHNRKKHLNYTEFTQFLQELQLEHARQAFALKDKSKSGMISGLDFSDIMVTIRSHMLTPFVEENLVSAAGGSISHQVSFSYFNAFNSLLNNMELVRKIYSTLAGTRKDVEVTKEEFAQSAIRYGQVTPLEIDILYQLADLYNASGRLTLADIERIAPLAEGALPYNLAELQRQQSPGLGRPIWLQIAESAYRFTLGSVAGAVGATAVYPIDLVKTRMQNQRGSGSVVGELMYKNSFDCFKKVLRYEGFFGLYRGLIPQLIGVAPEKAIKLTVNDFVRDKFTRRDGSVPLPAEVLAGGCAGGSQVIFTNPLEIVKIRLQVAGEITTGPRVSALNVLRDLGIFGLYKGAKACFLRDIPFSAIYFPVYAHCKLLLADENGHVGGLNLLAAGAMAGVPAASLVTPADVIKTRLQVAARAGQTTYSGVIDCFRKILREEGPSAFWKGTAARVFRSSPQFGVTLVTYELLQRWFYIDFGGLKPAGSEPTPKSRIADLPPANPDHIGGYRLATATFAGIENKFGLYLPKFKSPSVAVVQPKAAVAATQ

Musashi 2 [3] = target: Musashi 2 (UniProt Q96DH6); test: two-step tag pull-down of DAP-TDP-43, SDS-PAGE, in-gel digestion, LC-MS/MS
[4] = target: T1, Aralar 2 (SLC25A3; citrin); test: as above
Aralar 1 (SLC25A12) [5] = target: T2, Aralar 1 (SLC25A12); test: as above
[6] = target: glutamate dehydrogenase (GDH) (UniProt P00367); test: as above
Musashi 2 [7] = target: Musashi 2 (UniProt Q96DH6); test: co-immunoprecipitation with DAP-TDP-43 at 4, 8 and 24 h after doxycycline induction, Western blot (FIG. 12)
[8] = target: T1, Aralar 2 (SLC25A3; citrin); test: as above
Aralar 1 (SLC25A12) [9] = target: T2, Aralar 1 (SLC25A12); test: as above
[10] = target: glutamate dehydrogenase (GDH) (UniProt P00367); test: as above

Measured: binding

DAP-tagged RRM1 domain-deficient TDP-43 (from UniProt Q13148 1-414)
binds: [1] | Aralar 1 (SLC25A12) [2]

DAP-tagged RRM2 domain-deficient TDP-43 (from UniProt Q13148 1-414)
binds: [1] | Aralar 1 (SLC25A12) [2]

DAP-tagged TDP-43 (wild type TAR DNA-binding protein 43) (from UniProt Q13148 1-414)
not listed: [1] | Aralar 1 (SLC25A12) [2]
binds: all other assays above
